Measurements reported in PubChem BioAssay AID1224826 (NIAID, 2016)
Here is one part, drawn at random, of about 17,000 reagents tested. Over the whole deposit, about 1,110 (6.6%) were called active. 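Active means lowered or raised reporter signal; replicate intensities are raw and not normalised per plate.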 A number with no mark means an inactive call. Further read-outs or replicates are left out here.

Purpose: 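Regulators of Tlr4 signalling leading to Tnf-alpha expression in macrophages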 (primary screen)
Cell system: RAW264.7 G9 macrophages from mouse bearing reporters for p65 (GFP) and the Tnf promoter (mCherry)
Knock-down reagent: siRNA pool against mouse genes, 100 nM
Time to read-out: 16 h of LPS stimulation, after 2 days of siRNA transfection
Conditions: bacterial lipopolysaccharide (Salmonella minnesota R595), 10 ng/ml
Measurement: 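Imaged Tnf reporter mCherry in nuclei, minus background, normalised per plate to the median and expressed as robust z-scores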
Reading the numbers: Tnf reporter robust z-score: higher = stronger Tnf promoter reporter signal after LPS
Active means: 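Called active when robust z-score is at most -1.3, matching the median of the Tlr4 knock-down control, or over 3; control wells and wells with under 50 cells never active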
Meaning of the calls: active = Tnf reporter clearly lowered or raised; inactive = no clear change in Tnf reporter

Csn2 → Tnf reporter robust z-score: -0.19; fewer than 50 cells in well: enough cells in well
Or6b6 → Tnf reporter robust z-score: -0.4; fewer than 50 cells in well: enough cells in well
Znrf1 → Tnf reporter robust z-score: -1.03; fewer than 50 cells in well: enough cells in well
Ntng1 → Tnf reporter robust z-score: 0.51; fewer than 50 cells in well: enough cells in well
Miip → Tnf reporter robust z-score: -0.73; fewer than 50 cells in well: enough cells in well
Obox1 → Tnf reporter robust z-score: 1.2; fewer than 50 cells in well: enough cells in well
Ncf1 → Tnf reporter robust z-score: -0.18; fewer than 50 cells in well: enough cells in well
Rap1gap → Tnf reporter robust z-score: 0.27; fewer than 50 cells in well: enough cells in well
4930503L19Rik → fewer than 50 cells in well: fewer than 50 cells per well; well left out of calls
Zfp598 → Tnf reporter robust z-score: 3.09 (active); fewer than 50 cells in well: enough cells in well
Dhcr24 → Tnf reporter robust z-score: -0.5; fewer than 50 cells in well: enough cells in well
6030445D17Rik → Tnf reporter robust z-score: -0.53; fewer than 50 cells in well: enough cells in well
Aqp1 → Tnf reporter robust z-score: -0.3; fewer than 50 cells in well: enough cells in well
Gstt1 → Tnf reporter robust z-score: -0.76; fewer than 50 cells in well: enough cells in well
Oas1d → Tnf reporter robust z-score: 0.23; fewer than 50 cells in well: enough cells in well
Pld5 → Tnf reporter robust z-score: 0.05; fewer than 50 cells in well: enough cells in well
Magea2 → Tnf reporter robust z-score: 1.77; fewer than 50 cells in well: enough cells in well
Or51a8 → fewer than 50 cells in well: fewer than 50 cells per well; well left out of calls
Rnf212 → Tnf reporter robust z-score: -0.47; fewer than 50 cells in well: enough cells in well
Nat8f4 → fewer than 50 cells in well: fewer than 50 cells per well; well left out of calls
B9d1 → Tnf reporter robust z-score: 0.13; fewer than 50 cells in well: enough cells in well

Targets above whose gene name starts with M or m:
Miip → Tnf reporter robust z-score: -0.73; fewer than 50 cells in well: enough cells in well
Magea2 → Tnf reporter robust z-score: 1.77; fewer than 50 cells in well: enough cells in well
